For this assay, the target named is T1, Retinol-binding protein 1 (UniProt P09455).
T1 sequence: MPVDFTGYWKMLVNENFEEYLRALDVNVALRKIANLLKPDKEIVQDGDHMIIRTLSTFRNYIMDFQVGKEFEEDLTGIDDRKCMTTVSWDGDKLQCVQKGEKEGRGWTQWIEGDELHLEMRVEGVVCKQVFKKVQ
The assay can be described thus: co-IP; Co-IP kit (Thermo Scientific); SCC15 cell lysate incubated with the indicated antibodies overnight at 4 °C, protein A/G beads 2 h at 4 °C, washed three times with IP lysis buffer, western blot (anti-RBP1, anti-CKAP4, anti-IgG).

Sequences of proteins named here, by UniProt entry; tags and fusion partners are left off.
UniProt Q07065: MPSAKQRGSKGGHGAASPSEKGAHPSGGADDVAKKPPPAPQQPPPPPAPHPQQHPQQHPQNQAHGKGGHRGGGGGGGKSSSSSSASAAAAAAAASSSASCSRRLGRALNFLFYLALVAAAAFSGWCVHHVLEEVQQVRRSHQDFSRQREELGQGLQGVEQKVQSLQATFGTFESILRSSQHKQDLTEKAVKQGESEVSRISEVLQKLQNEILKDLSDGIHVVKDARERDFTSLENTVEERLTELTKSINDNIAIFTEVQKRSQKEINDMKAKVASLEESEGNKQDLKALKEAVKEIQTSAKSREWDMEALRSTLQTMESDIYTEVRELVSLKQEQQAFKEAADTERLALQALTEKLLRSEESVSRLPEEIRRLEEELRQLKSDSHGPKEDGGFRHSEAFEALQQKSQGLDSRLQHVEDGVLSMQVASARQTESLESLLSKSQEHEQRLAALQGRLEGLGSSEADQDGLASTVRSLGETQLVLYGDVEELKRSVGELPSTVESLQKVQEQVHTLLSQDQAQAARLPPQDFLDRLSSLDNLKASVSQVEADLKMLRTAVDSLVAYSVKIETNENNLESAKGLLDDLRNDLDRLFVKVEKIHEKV

No constants are given. Whether binding was seen depends on the method and setting. In cells and extracts the contact can be indirect. Some entries that bind do so weakly or less than the wild type.

1 substance from PMC7316825 can be followed below.

Turning to “Cytoskeleton-associated protein 4 (from UniProt Q07065 1-602)”, the binding result is on record as “binds”.
